The values below come from patent US9482924B2, “Colored composition and image display structure” (FUJIFILM CORPORATION, priority 2011, dated 2016).

The nature of the data set: Color of colored solution observed with the naked eye. Type of data set: physicochemical. The following applies: 15% by mass pigment-n-hexane solution. From the text:
Azomethine pigments (preparing the above exemplified compounds D-1, D-5, D-11, D-20, D-26, D-38, D-43, D-46, D-49, D-55, D-56, D-57 and D-65 shown in the following Table) and n-hexane as an organic solvent were mixed to prepare a 15% by mass azomethine pigment-n-hexane solution (colored composition), thereby manufacturing 13 kinds of colored solutions.
For `CCCCCCN(CCCCCC)c1cc(C)c(N=C2C(C#N)=C(C(=O)OC3C(C(C)(C)C)CC(C)CC3C(C)(C)C)c3nc(C(C)(C)C)nn32)c(C)c1` [Pigment D-65], the Solution color entry is “Green”.
`CCCCCCOc1cc(N(CCCCCC)CCCCCC)ccc1N=C1C(C#N)=Nn2nc(C(C)(C)C)nc21` [Pigment D-56]: the Solution color result is “Red”.
For the compound `CCCCCCCCOc1cc(N(CCCC)CCCC)ccc1N=C1C(=O)ON=C1c1ccccc1` [Pigment D-20], the Solution color entry is listed as “Orange”.
Regarding `CCCCCCCCN(CCCCCCCC)c1ccc(N=C2C(C(C)(C)C)=Nn3nc(-c4ccccc4)nc32)c(C)c1` [Pigment D-49], the Solution color entry is “Orange”.
Turning to `CCCCN(CCCC)c1ccc(N=C2C=C(C(=O)NC)C(=O)c3ccccc32)cc1` [Pigment D-104, reference compound], the Solution color result was “Hardly”.
For the compound `CCCCCCCCN1CCc2cc(/N=C3/C(C)=Nn4nc(C(C)CNC(=O)C(CCCCCC)Oc5ccc(C(C)(C)CC)cc5C(C)(C)CC)nc43)ccc21` [Pigment D-57], the Solution color result is “Red”.
With `CCCCCCN(CCCCCC)c1ccc(N=C2C=C(C(=O)Nc3ccccc3)C(=O)c3ccccc32)c(C)c1` [Pigment D-46] the entry was “Blue”; with `CCN(CC)c1ccc(/N=C2\C(C#N)=C(C(=O)OC)c3nc(-c4ccc(C(C)(C)C)cc4)nn32)c(C)c1` [Pigment D-106, reference compound], “Hardly”; with `CCCCCCCCN(CCCCCCCC)c1ccc(N=C2C(=O)N(c3ccccc3)N=C2C)c(C)c1` [Pigment D-1], “Orange”.
For the compound `CCCCCCCCNC(=O)C1=CC(=Nc2ccc(N(CCCCCCCC)CCCCCCCC)cc2)C=C(C)C1=O` [Pigment D-26], the Solution color result is listed as “Blue”.
With `CCN(CC)c1ccc(N=C2C(=O)N(c3ccccc3)N=C2C)c(C)c1` [Pigment D-101, reference compound] the entry was “Hardly”.
With `CCN(CC)c1ccc(N=C2C=C(NC(C)=O)C(=O)C(Cl)=C2C)c(C)c1` [Pigment D-103, reference compound] the entry was “Hardly”.
Take `CCCCCCCCCCCCCCCCNC(=O)C1=CC(=Nc2ccc(N(CC)CC)cc2CC)c2ccccc2C1=O` [Pigment D-38]: the Solution color entry was “Blue”.
As to `CCCCCCCCN1N=C(C(C)(C)C)C(=Nc2ccc(N(CC)CC)cc2C)C1=O` [Pigment D-5], the Solution color entry is given as “Red-orange”.
Take `CCN(CC)c1ccc(N=C2C(=O)ON=C2C(C)(C)C)cc1` [Pigment D-102, reference compound]: the Solution color result is given as “Hardly”.
On to `CCCCCCCCCCCCCCCCCCNC(=O)C1=CC(=Nc2ccc(N(CC)CC)cc2OC)c2ccccc2C1=O` [Pigment D-43], for which the Solution color result is recorded as “Blue”.
Regarding `CCCCCCN(CCCCCC)c1ccc(N=C2C(=O)N(c3ccccc3)N=C2C(C)(C)C)c(C)c1` [Pigment D-11], the Solution color entry was “Orange”.
